Publication PMC7287395
Results are given in words; binding and its absence hold for the method and conditions named. Some entries that bind do so weakly or less than the wild type.

Sequences of proteins named here, by UniProt entry; tags and fusion partners are left off. Residues count along the entry.
UniProt P26718, residues 73-216: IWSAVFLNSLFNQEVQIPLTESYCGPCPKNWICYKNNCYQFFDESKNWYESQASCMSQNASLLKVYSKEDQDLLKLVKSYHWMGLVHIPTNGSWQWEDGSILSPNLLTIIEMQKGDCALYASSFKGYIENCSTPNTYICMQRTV

B1: soluble mouse NKG2D ectodomain, tetramerized with SA-APC (receptor, UniProt O54709 90-232)
chain: FKETFQPVLCNKEVPVSSREGYCGPCPNNWICHRNNCYQFFNEEKTWNQSQASCLSQNSSLLKIYSKEEQDFLKLVKSYHWMGLVQIPANGSWQWEDGSSLSYNQLTLVEIPKGSCAVYGSSFKAYTEDCANLNTYICMKRAV

Target: T1, human MICA*001 on B16F10-MICA*001 transductants (human) (UniProt Q29983)
T1 sequence: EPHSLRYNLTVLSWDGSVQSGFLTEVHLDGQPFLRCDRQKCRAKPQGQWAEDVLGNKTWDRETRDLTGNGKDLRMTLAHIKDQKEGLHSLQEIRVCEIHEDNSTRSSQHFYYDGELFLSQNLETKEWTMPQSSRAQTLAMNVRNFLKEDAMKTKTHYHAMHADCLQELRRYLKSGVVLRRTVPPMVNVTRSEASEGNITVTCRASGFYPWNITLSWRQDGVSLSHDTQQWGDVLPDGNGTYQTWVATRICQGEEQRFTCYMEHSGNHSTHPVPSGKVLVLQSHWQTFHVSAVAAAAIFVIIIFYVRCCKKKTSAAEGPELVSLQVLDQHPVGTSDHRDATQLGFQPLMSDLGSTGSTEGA
Experiment: flow cytometry on cells; B16F10-MICA*001 and B16F10-mock transductants stained with recombinant human or mouse NKG2D ectodomains tetramerized with SA-APC; control staining with SA-conjugate only; only the binder purified

Molecule | binding
soluble human NKG2D ectodomain, tetramerized with SA-APC (from UniProt P26718 73-216) (receptor) | binds
B1 | binds
